# Results from one PubChem assay

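Uptake of anthrax lethal toxin into cultured cells, read by FRET (460/530 nm ratio) and reported from the 460 nm channel; the cell line is not named here. Each compound was tested as a concentration series from about 0.0005 to 40 µM. The number is the fitted AC50 of the 460 nm signal alone; lower values mean a more potent effect. A falling signal goes with compounds filed as inhibitors or cytotoxic, a rising one with activators or fluorescent compounds (inferred from the filed classes).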

Values are in µM. Common to all entries: measured here: 460 nm channel. This is a side read-out of the assay, for part of the compounds, not drawn at random. A potency from a partial, single-point or poor curve is only a rough figure. The first word of each remark tells which way the curve ran; it can be opposite to the aim of the assay.

Compound,AC50 (µM),remark
c1ccc2c(c1)CCCN2Cc1nnnn1CC1CCCO1 (centres undefined),0.3162,"falling, full curve"
Cc1cc(C)c(C#N)c(N2CCSCC2)n1,0.003981,"falling, full curve, poor fit"
COc1cc(OC)c(-c2nn3c(C4CCCCC4)nnc3s2)cc1OC,12.59,"falling, partial curve"
Cc1ccc(S(=O)(=O)N(C)CC(=O)OCc2nnc(-c3ccccc3)o2)cc1,25.12,"rising, single point"
COc1ccc(-n2c(=O)c(-c3cccs3)nc3cnc(N4CCNCC4)nc32)cc1,1.995,"rising, full curve"
COc1ccccc1CNc1ncnc2ccc(-c3ccccc3C#N)cc12,5.012,"falling, partial curve"
COc1cc(-c2nc(-c3cccc(C)c3)no2)cc(OC)c1OC,31.62,"falling, single point"
CCOC(=O)Cn1cnc2c(nnn2-c2ccc(OC)cc2)c1=O,1.259,"rising, partial curve"
CN(C)c1nc(-c2ccccc2C(F)(F)F)nc2ccccc12,12.59,"falling, single point"
Cc1nnc2c3ccccc3c(-c3ccccc3)nn12,0.7943,"falling, full curve, poor fit"
O=C(OCc1ccccc1)C1CCCN1C(=O)c1cccs1 (centres undefined),3.162,"rising, full curve"
N=c1n(Cc2ccc(Cl)cc2)c2ccccc2n1CC(O)c1ccco1 (centres undefined),5.012,"falling, partial curve, poor fit"
COC(=O)C1=C(C)NC(C)=C(C(=O)OCCSc2ccccc2)[C@@H]1C,10,"falling, full curve"
CCc1ccc(C2C(C#N)=C(N)SC(N)=C2C#N)cc1,12.59,"falling, partial curve"
O=C(CSc1nnc(Cc2cccs2)n1-c1ccccc1)NCc1ccc2c(c1)OCO2,0.7943,"rising, partial curve"
O=c1c2c3nc4ccccc4nc3n(Cc3ccccc3)c2ncn1Cc1ccco1,0.02512,"falling, full curve, poor fit"
Cc1[nH]c2ccccc2c1CCO,5.012,"falling, partial curve"
NC(=O)c1nnn(Cc2cc(Cl)c(C(=O)c3ccc(Cl)cc3)c(Cl)c2)c1N,1.585,"falling, partial curve"
c1ccc(Nc2nc(-c3ccc4c(c3)OCO4)nc3ccccc23)cc1,12.59,"falling, partial curve"
CCN1C=C(C(=O)OC)C(c2cccc(C)c2)C(C(=O)OC)=C1,12.59,"rising, partial curve"
CCCC[C@@H]1C[C@H]1[C@@H](NP(=O)(c1ccccc1)c1ccccc1)c1ccccc1OC,12.59,"falling, partial curve"
CCCN1CCC(N(C)CCc2ccc(OC)c(OC)c2)CC1,1.995,"falling, partial curve"
Cc1cc(Nc2ccccc2)n(-c2nc3ccccc3[nH]2)n1,10,"falling, partial curve"
CC(C)NC(=O)N1CCC2(CCNCC2)CC1,7.943,"falling, partial curve"
CC(C)C(=O)Nc1ccccc1N1CCN(S(C)(=O)=O)CC1,1.995,"rising, partial curve"
O=c1c(-c2cccs2)nc2cnc(Oc3cccc(Cl)c3)nc2n1C[C@H]1CCCO1,10,"rising, partial curve"
COc1ccc(C2NCc3ccc4c(c3-n3cccc32)OCO4)cc1OC (centres undefined),31.62,"falling, partial curve"
N#CC1=C(N)C(C#N)(C#N)[C@H](c2c(F)cccc2F)[C@H]2CC3(CC=C12)OCCO3,0.1259,"rising, full curve, poor fit"
CCN(CC)CCCN1C(=O)C(=O)/C(=C(/O)c2c(C)nc3ccccn23)C1c1ccc(C)o1 (centres undefined),15.85,"falling, single point"
COc1ccc2ccccc2c1/C=C\C(=O)c1ccccc1,3.981,"falling, partial curve"
N[C@@H]1CCN(O)C1=O,3.162,"falling, full curve"
Clc1ccc(OCCn2ccnc2)c(Cl)c1,0.1585,"falling, partial curve"
O=C(C1CCN(S(=O)(=O)c2cccc3cccnc23)CC1)N1CC=C(c2ccccc2)CC1,10,"falling, partial curve"
O=C(NCCc1ccccn1)c1ccc(COc2ccccc2)o1,0.3162,"falling, full curve, poor fit"
O=C1C(C=NCCCn2ccnc2)=C(O)c2ccccc21,0.003162,"falling, full curve, poor fit"
CN1CCN(c2ncc3nc(-c4ccccc4)c(=O)n(-c4ccccc4)c3n2)CC1,10,"rising, partial curve"
C[C@@H](Cc1cccc(C(F)(F)F)c1)NCCCc1ccccc1,31.62,"falling, single point"
CCNc1ncc2nc(-c3ccccc3)c(=O)n(CCOC)c2n1,10,"rising, partial curve"
Cn1c(=O)c(-c2cccs2)nc2cnc(N3CCNCC3)nc21,12.59,"rising, partial curve"
CC(Oc1ccc(Cl)cc1Cl)C(=O)NCCN1CCOCC1 (centres undefined),0.02512,"falling, full curve, poor fit"
Cc1cc(C)cc(C(=O)OC2C[C@H]3CC[C@@H](C2)N3C)c1 (some centres undefined),1,"falling, full curve, poor fit"
CC1=C(C(=O)OCc2ccccc2)C(c2ccc3ccccc3c2)NC(=O)N1CCCCCC(=O)O (centres undefined),10,"rising, partial curve"
c1ccc(-c2oc3ncnc(NCCN4CCOCC4)c3c2-c2ccccc2)cc1,31.62,"falling, single point"
CCOC(=O)N1CCC(N2C(=O)c3ccccc3C2Nc2ccc3c(C)cc(=O)oc3c2)CC1 (centres undefined),25.12,"rising, single point"
Nc1ccc(-c2cc(N)n(-c3ccccc3)n2)cc1,12.59,"falling, single point"
CCOC(=O)c1c(-c2ccccc2)oc2ccc(O)c(CN3CCOCC3)c12,10,"falling, partial curve"
N[C@H](C(=O)O)[C@@H]1[C@@H](C(=O)O)C1(F)F,31.62,"falling, single point"
CCn1cnc2sc(C(=O)O)c(C)c2c1=O,0.003162,"falling, full curve"
Cc1ccc2cc(C(c3nnnn3C3CCCC3)N3CCN(c4ccccc4)CC3)c(=O)[nH]c2c1 (centres undefined),12.59,"falling, partial curve"
COc1ccc(Oc2ncc3nc(-c4cc(F)cc(F)c4)c(=O)n(C[C@H]4CCCO4)c3n2)cc1,1.995,"falling, full curve, poor fit"
CCOC(=O)N1CCC(N2Cc3cccc(C(=O)NC(C)c4ccc5c(c4)OCCO5)c3C2=O)CC1 (centres undefined),1.585,"rising, full curve"
C=CCNC(=O)COc1ccc(S(=O)(=O)NC2CCCCC2)cc1,1.995,"falling, partial curve"
Cc1cc(C)c2c(=O)n(CC(=O)NCCCN3CCN(c4ccccc4F)CC3)sc2n1,10,"falling, partial curve"

The first 6 entries again:

| Compound | AC50 (µM) | remark |
|---|---|---|
| `c1ccc2c(c1)CCCN2Cc1nnnn1CC1CCCO1` (centres undefined) | 0.3162 | falling, full curve |
| `Cc1cc(C)c(C#N)c(N2CCSCC2)n1` | 0.003981 | falling, full curve, poor fit |
| `COc1cc(OC)c(-c2nn3c(C4CCCCC4)nnc3s2)cc1OC` | 12.59 | falling, partial curve |
| `Cc1ccc(S(=O)(=O)N(C)CC(=O)OCc2nnc(-c3ccccc3)o2)cc1` | 25.12 | rising, single point |
| `COc1ccc(-n2c(=O)c(-c3cccs3)nc3cnc(N4CCNCC4)nc32)cc1` | 1.995 | rising, full curve |
| `COc1ccccc1CNc1ncnc2ccc(-c3ccccc3C#N)cc12` | 5.012 | falling, partial curve |

Data taken from PubChem BioAssay AID912, deposited by NCATS (2007).